Data on 12 compounds can be found in PubChem BioAssay AID256 (DTP/NCI, 2004).

This experiment relates to CD2F1 mice, L1210 leukemia ip, survival T/C. The experiment is described as follows: NCI In Vivo Anticancer Drug Screen. Data for tumor model L1210 Leukemia (intraperitoneal) in CD2F1 (CDF1) mice. The following applies: higher T/C = longer survival. Put shortly:
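Read-out first: treated-group measurement over vehicle-control measurement, expressed as a ratio. Animals bore a transplanted tumor line and were dosed with compound or vehicle.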

Where [1] appears, read: T/C endpoint: mean survival time, dose: 25.0 mg/kg/injection, schedule: Q04DX003 (ip), vehicle: saline.
Where [2] appears, read: T/C endpoint: mean survival time, dose: 100.0 mg/kg/injection, schedule: Q04DX003 (ip), vehicle: saline.
Where [3] appears, read: T/C endpoint: mean survival time, dose: 50.0 mg/kg/injection, schedule: Q01DX001 (ip), vehicle: DMSO.
Setting [4] is: T/C endpoint: mean survival time, dose: 100.0 mg/kg/injection, schedule: Q01DX001 (ip), vehicle: DMSO.
[5] abbreviates: T/C endpoint: mean survival time, dose: 200.0 mg/kg/injection, schedule: Q01DX001 (ip), vehicle: DMSO.
[6] abbreviates: T/C endpoint: mean survival time, dose: 400.0 mg/kg/injection, schedule: Q01DX001 (ip), vehicle: DMSO.
Setting [7] is: T/C endpoint: mean survival time, dose: 12.5 mg/kg/injection, schedule: Q01DX009 (ip), vehicle: Klucel (hydroxypropylcellulose) (HPC).

Molecules are shown by their SMILES. The list shows only some results of the screen, not a fair sample: it covers a few groups of compounds. Not every dose and run of a compound is shown. T/C gives the treated animals as a percentage of the vehicle group. Some doses have a count of surviving animals in place of a T/C: the source files T/C as zero there, which appears to mark a toxic dose or a test without result, not a measured value. Some doses without a T/C left all or most animals alive at the check, yet need not have been tolerated: the source hardly ever lists a survival T/C far under the control, and the zero likely stands for such cases as well. Counts of survivors are from the toxicity check (mostly the fifth day) where no day follows; animals may have died later. Schedule codes are those of the source, read here as Q, the interval in days (D) or hours (H), X, the number of doses. Some doses were run more than once; the results are listed from low to high. Where survival is the endpoint, the PubChem record calls one and a half times the control and up active, and a quarter to a half above the control has no call in these data; cut-offs in other NCI protocols can differ. Some T/C values are marked as having no survivor count here; that says nothing about deaths at the dose. Some T/C values carry the count of animals alive at the toxicity check (mostly the fifth day); where neither a count nor a note follows, no animal had died by that day.

Take `N#CN(CCCl)N=O`: the T/C by setting is: (T/C endpoint: median survival time, dose: 3.12 mg/kg/injection, schedule: Q01DX001 (ip), vehicle: water) 101 % of control; (T/C endpoint: median survival time, dose: 6.25 mg/kg/injection, schedule: Q01DX001 (ip), vehicle: water) 111 % of control; (T/C endpoint: median survival time, dose: 12.5 mg/kg/injection, schedule: Q01DX001 (ip), vehicle: water) 106 % of control; (T/C endpoint: median survival time, dose: 25.0 mg/kg/injection, schedule: Q01DX001 (ip), vehicle: water) 105 and 118 % of control; (T/C endpoint: median survival time, dose: 50.0 mg/kg/injection, schedule: Q01DX001 (ip), vehicle: water) 116 and 134 % of control; (T/C endpoint: median survival time, dose: 100.0 mg/kg/injection, schedule: Q01DX001 (ip), vehicle: water) 121 [5 of 6 alive] and 168 % of control. The T/C (T/C endpoint: median survival time, dose: 200.0 mg/kg/injection, schedule: Q01DX001 (ip), vehicle: water) is 128 % of control.

In the case of `CC(=O)c1cc(CN(C)C)oc1C.O=[N+]([O-])c1cc([N+](=O)[O-])c(O)c([N+](=O)[O-])c1`, the T/C is 98 % of control [survivor count not shown] (T/C endpoint: mean survival time, dose: 50.0 mg/kg/injection, schedule: Q04DX002 (ip), vehicle: saline with Tween-80); 101 % of control [survivor count not shown] (T/C endpoint: mean survival time, dose: 100.0 mg/kg/injection, schedule: Q01DX001 (ip), vehicle: saline with Tween-80); 106 % of control [survivor count not shown] (T/C endpoint: mean survival time, dose: 100.0 mg/kg/injection, schedule: Q04DX002 (ip), vehicle: saline with Tween-80); 100 % of control [survivor count not shown] (T/C endpoint: mean survival time, dose: 200.0 mg/kg/injection, schedule: Q01DX001 (ip), vehicle: saline with Tween-80); 92 % of control [survivor count not shown] (T/C endpoint: mean survival time, dose: 200.0 mg/kg/injection, schedule: Q04DX002 (ip), vehicle: saline with Tween-80); 100 % of control [survivor count not shown] (T/C endpoint: mean survival time, dose: 400.0 mg/kg/injection, schedule: Q01DX001 (ip), vehicle: saline with Tween-80).

On to `CC[C@H](C)[C@@H]1NC(=O)/C(=C(\C)O)C1=O`, for which the T/C reads like this: (T/C endpoint: mean survival time, dose: 12.5 mg/kg/injection, schedule: Q01DX009 (ip), vehicle: saline with Tween-80) 96 % of control; (T/C endpoint: mean survival time, dose: 25.0 mg/kg/injection, schedule: Q01DX009 (ip), vehicle: saline with Tween-80) 101 % of control; under setting [1], 97 % of control; (T/C endpoint: mean survival time, dose: 50.0 mg/kg/injection, schedule: Q01DX009 (ip), vehicle: saline with Tween-80) 96 % of control; (T/C endpoint: mean survival time, dose: 50.0 mg/kg/injection, schedule: Q04DX003 (ip), vehicle: saline) 101 % of control. Also, the survivor count under setting [2] is 3 of 6.

As for `CCOP(=O)(NC(=S)Nc1ccccc1NC(=S)NP(=O)(OCC)OCC)OCC`, the T/C reads like this: (T/C endpoint: mean survival time, dose: 1.56 mg/kg/injection, schedule: Q01DX009 (ip), vehicle: saline) 108 % of control; (T/C endpoint: mean survival time, dose: 3.12 mg/kg/injection, schedule: Q01DX009 (ip), vehicle: saline) 103 % of control; (T/C endpoint: mean survival time, dose: 6.25 mg/kg/injection, schedule: Q01DX009 (ip), vehicle: saline) 96 % of control.

For `COc1nccc2ccccc12.O=[N+]([O-])c1cc([N+](=O)[O-])c(O)c([N+](=O)[O-])c1`, the T/C is 97 % of control [survivor count not shown] under setting [2]; 93 % of control [survivor count not shown] (T/C endpoint: mean survival time, dose: 200.0 mg/kg/injection, schedule: Q04DX003 (ip), vehicle: saline); 97 % of control [survivor count not shown] (T/C endpoint: mean survival time, dose: 400.0 mg/kg/injection, schedule: Q04DX003 (ip), vehicle: saline).

For the compound `COc1ccc2c(c1)C13CCN(C)C(C2)C1CC(C)=C(C)C3.O=[N+]([O-])c1cc([N+](=O)[O-])c(O)c([N+](=O)[O-])c1` (configuration not stated), the T/C (T/C endpoint: mean survival time, dose: 100.0 mg/kg/injection, schedule: Q04DX003 (ip), vehicle: saline sonified) is 91 % of control [survivor count not shown]; the T/C (T/C endpoint: mean survival time, dose: 200.0 mg/kg/injection, schedule: Q04DX003 (ip), vehicle: saline sonified) was 91 % of control [survivor count not shown]; the T/C (T/C endpoint: mean survival time, dose: 400.0 mg/kg/injection, schedule: Q04DX003 (ip), vehicle: saline sonified) was 93 % of control [survivor count not shown].

Regarding `CNc1c([N+](=O)[O-])cc([N+](=O)[O-])cc1[N+](=O)[O-]`, the T/C (T/C endpoint: mean survival time, dose: 100.0 mg/kg/injection, schedule: Q01DX001 (ip), vehicle: Klucel (hydroxypropylcellulose) (HPC)) was 101 % of control [survivor count not shown]; the T/C (T/C endpoint: mean survival time, dose: 200.0 mg/kg/injection, schedule: Q01DX001 (ip), vehicle: Klucel (hydroxypropylcellulose) (HPC)) was 112 % of control [survivor count not shown]; the T/C (T/C endpoint: mean survival time, dose: 400.0 mg/kg/injection, schedule: Q01DX001 (ip), vehicle: Klucel (hydroxypropylcellulose) (HPC)) was 108 % of control [survivor count not shown].

As to `C[C@@H]1CCO[P@@](=O)(N(CCCl)CCCl)N1`, the T/C was 107 % of control (T/C endpoint: mean survival time, dose: 25.0 mg/kg/injection, schedule: Q01DX001 (ip), vehicle: DMSO); 119 % of control under setting [3]; 147 % of control under setting [4]. The survivor count is recorded as 6 of 6 under setting [5] and 2 of 6 under setting [6].

For `Oc1ccc(N(CCCl)CCCl)cc1`, the T/C (T/C endpoint: mean survival time, dose: 0.5 mg/kg/injection, schedule: Q01DX009 (ip), vehicle: Klucel (hydroxypropylcellulose) (HPC)) is 100 % of control; the T/C (T/C endpoint: mean survival time, dose: 1.0 mg/kg/injection, schedule: Q01DX009 (ip), vehicle: Klucel (hydroxypropylcellulose) (HPC)) is 105 % of control; the T/C (T/C endpoint: mean survival time, dose: 2.0 mg/kg/injection, schedule: Q01DX009 (ip), vehicle: Klucel (hydroxypropylcellulose) (HPC)) is 111 % of control; the T/C (T/C endpoint: mean survival time, dose: 4.0 mg/kg/injection, schedule: Q01DX009 (ip), vehicle: Klucel (hydroxypropylcellulose) (HPC)) was 111 % of control; the T/C (T/C endpoint: mean survival time, dose: 8.0 mg/kg/injection, schedule: Q01DX009 (ip), vehicle: Klucel (hydroxypropylcellulose) (HPC)) is 117 % of control; the T/C (T/C endpoint: mean survival time, dose: 16.0 mg/kg/injection, schedule: Q01DX009 (ip), vehicle: Klucel (hydroxypropylcellulose) (HPC)) was 86 % of control.

For the compound `NCCc1ccc(N(CCCl)CCCl)cc1`, the T/C was 105 and 112 % of control (T/C endpoint: mean survival time, dose: 1.56 mg/kg/injection, schedule: Q01DX009 (ip), vehicle: Klucel (hydroxypropylcellulose) (HPC)); 109, 118, 126 % of control (T/C endpoint: mean survival time, dose: 3.12 mg/kg/injection, schedule: Q01DX009 (ip), vehicle: Klucel (hydroxypropylcellulose) (HPC)); 114, 121, 122, 143 % of control (T/C endpoint: mean survival time, dose: 6.25 mg/kg/injection, schedule: Q01DX009 (ip), vehicle: Klucel (hydroxypropylcellulose) (HPC)); 88 % of control under setting [7]. For the same compound, the survivor count under setting [7] is listed as 6 of 6; the survivor count (T/C endpoint: mean survival time, dose: 25.0 mg/kg/injection, schedule: Q01DX009 (ip), vehicle: Klucel (hydroxypropylcellulose) (HPC)) is listed as 2 of 6; the survivor count (T/C endpoint: mean survival time, dose: 50.0 mg/kg/injection, schedule: Q01DX009 (ip), vehicle: Klucel (hydroxypropylcellulose) (HPC)) is reported as 0 of 3; the survivor count (T/C endpoint: mean survival time, dose: 100.0 mg/kg/injection, schedule: Q01DX009 (ip), vehicle: Klucel (hydroxypropylcellulose) (HPC)) was 0 of 3; the survivor count (T/C endpoint: mean survival time, dose: 200.0 mg/kg/injection, schedule: Q01DX009 (ip), vehicle: Klucel (hydroxypropylcellulose) (HPC)) is reported as 0 of 3.

`O=[As](O)(c1ccc(Cl)cc1)C1CCCCC1O` (configuration not stated): the T/C (T/C endpoint: mean survival time, dose: 6.25 mg/kg/injection, schedule: Q04DX003 (ip), vehicle: saline) was 98 % of control; the T/C (T/C endpoint: mean survival time, dose: 12.5 mg/kg/injection, schedule: Q04DX003 (ip), vehicle: saline) was 101 % of control; the T/C under setting [1] was 118 % of control.

Turning to `CC(O)CCOP(=O)(N(CCCl)CCCl)N1CC1` (configuration not stated), the T/C by setting is: (T/C endpoint: mean survival time, dose: 12.5 mg/kg/injection, schedule: Q01DX001 (ip), vehicle: DMSO) 140 % of control; (T/C endpoint: mean survival time, dose: 25.0 mg/kg/injection, schedule: Q01DX001 (ip), vehicle: DMSO, evaluated on day 35) 164 % of control; (T/C endpoint: mean survival time, dose: 25.0 mg/kg/injection, schedule: Q01DX001 (ip), vehicle: DMSO, evaluated on day 45) 125 % of control; under setting [3], 180 % of control. The survivor count is 2 of 6 under setting [3]; 0 of 6 and 2 of 6 under setting [4]; 0 of 6 and 2 of 6 under setting [5]; 0 of 6 under setting [6].
